Test [1] concerns the target T1, ACD6-cLuc (… CELL DEATH 6 from Col-0, full length) (Arabidopsis thaliana) (UniProt Q8LPS2).
T1 sequence: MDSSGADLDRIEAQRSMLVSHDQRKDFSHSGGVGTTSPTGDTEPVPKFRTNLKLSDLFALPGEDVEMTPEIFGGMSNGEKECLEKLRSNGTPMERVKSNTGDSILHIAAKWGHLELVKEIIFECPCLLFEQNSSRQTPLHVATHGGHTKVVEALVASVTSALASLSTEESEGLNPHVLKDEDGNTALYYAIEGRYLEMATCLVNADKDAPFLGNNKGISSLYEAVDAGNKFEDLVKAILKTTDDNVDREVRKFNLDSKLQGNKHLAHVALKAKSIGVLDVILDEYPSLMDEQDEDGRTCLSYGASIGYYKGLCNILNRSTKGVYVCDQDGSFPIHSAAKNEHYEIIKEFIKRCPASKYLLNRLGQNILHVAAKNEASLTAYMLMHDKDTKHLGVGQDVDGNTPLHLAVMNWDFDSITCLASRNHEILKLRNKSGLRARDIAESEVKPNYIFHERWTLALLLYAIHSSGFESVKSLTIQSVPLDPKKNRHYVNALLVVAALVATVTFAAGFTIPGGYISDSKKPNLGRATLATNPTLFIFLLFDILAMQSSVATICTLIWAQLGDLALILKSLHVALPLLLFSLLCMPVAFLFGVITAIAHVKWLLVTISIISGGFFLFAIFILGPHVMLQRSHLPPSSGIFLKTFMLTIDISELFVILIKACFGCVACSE
Description: split reporter.

For test [2], the target named is GFP-MHA1L (Arabidopsis thaliana). Briefly: native gel or EMSA.
Test [3] has the same target. Description: co-IP.
Test [4] has the same target. Description: co-IP. The source holds these as a separate data set.

Results are given in words; binding and its absence hold for the method and conditions named. Binding can be weak; no strength is given. Where a sequence is shown, tags or fusion partners need not be part of it. For some of these results: Binding seen in cells or lysates may run through a third protein.

Consider “MHA1L-nLuc (MHA1-LIKE) (Arabidopsis thaliana)”, for which the binding result in test [1] was “binds”.

B1: ACD6-FLAG (ACD6-Col-0-3xFLAG) (protein, UniProt Q8LPS2 1-670)
chain: T1 sequence
B1: the binding entry in test [2], in test [3] and in test [4] was “binds” each time.
